Patent US9359347B2, “Inhibitors of Akt/PKB with anti-tumor activity” (University of South Florida, priority 2007, dated 2016)
At least one structure is not confirmed: it was looked up by name or label, or the drawing left a doubt.

Legend:
[1] = tested on: GSK3β; test: Immunoblotting of GSK3β phosphorylation in OVCAR3 cells; assay type: cell-based, human; settings: API-1 10 μM
[2] = tested on: OVCAR5; test: Nude mouse tumor xenograft model, OVCAR5; assay type: in vivo, nude mice; settings: 10 mg/kg/day i.p.
[3] = tested on: S6 protein; test: Immunoblotting of S6 phosphorylation in OVCAR3 cells; assay type: cell-based, human; settings: API-1 10 μM
[4] = tested on: p38; test: Immunoblotting of p38 phosphorylation in OVCAR3 cells; assay type: cell-based, human; settings: API-1 10 αM, different times
[5] = tested on: Stat3; test: Immunoblotting of Stat3 phosphorylation in OVCAR3 cells; assay type: cell-based, human; settings: API-1 10 αM, different times
[6] = tested on: COLO357; test: Nude mouse tumor xenograft model, COLO357; assay type: in vivo, nude mice; settings: 10 mg/kg/day i.p.
[7] = tested on: Erk1/2; test: Immunoblotting of Erk1/2 phosphorylation in OVCAR3 cells; assay type: cell-based, human; settings: API-1 10 αM, different times
[8] = tested on: JNK; test: Immunoblotting of JNK phosphorylation in OVCAR3 cells; assay type: cell-based, human; settings: API-1 10 αM, different times
[9] = tested on: PARP cleavage; test: PARP cleavage immunoblot in human cancer cell lines; assay type: cell-based; settings: much higher degree in Akt-overexpressing/activating cells than in those with low levels of Akt
[10] = molecular target: T1, SGK (Homo sapiens, UniProt O00141); test: In vitro kinase assay of HA-SGK immunoprecipitates from transfected HEK293 cells; assay type: cell-based; settings: HEK293 transfected with HA-SGK, treated prior to EGF stimulation, histone-H2B substrate
T1 construct: expressed in transfected cells; host or cells: HEK293
T1 sequence (O00141 1-431): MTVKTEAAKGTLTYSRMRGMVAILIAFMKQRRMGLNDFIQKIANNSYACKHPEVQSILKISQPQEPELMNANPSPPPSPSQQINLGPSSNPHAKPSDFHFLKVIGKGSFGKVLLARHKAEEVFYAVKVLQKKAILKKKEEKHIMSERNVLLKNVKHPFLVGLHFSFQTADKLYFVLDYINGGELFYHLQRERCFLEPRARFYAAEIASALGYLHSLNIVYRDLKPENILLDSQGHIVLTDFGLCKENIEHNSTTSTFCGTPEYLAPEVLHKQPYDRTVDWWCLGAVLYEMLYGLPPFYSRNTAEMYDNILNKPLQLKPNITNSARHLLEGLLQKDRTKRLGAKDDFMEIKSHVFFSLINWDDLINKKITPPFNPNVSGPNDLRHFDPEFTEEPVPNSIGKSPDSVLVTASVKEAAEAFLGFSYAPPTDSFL

Compound: NC(=O)c1cn(C2OC(CO)C(O)C2O)c2ncnc(N)c2c1=O (stereo not shown) [API-1]
- phosphorylation levels of GSKβ [1]: largely inhibited
- effect on tumor growth [2]: little effect
- phosphorylation levels of S6 [3]: largely inhibited
- phosphorylation levels of p38 [4]: did not observe the detectable changes
- phosphorylation levels of Stat3 [5]: did not observe the detectable changes
- effect on tumor growth [6]: little effect
- phosphorylation levels of Erk1/2 [7]: did not observe the detectable changes
- phosphorylation levels of JNK [8]: did not observe the detectable changes
- PARP cleavage [9]: induces

Compound: COC[C@H]1OC(=O)c2coc3c2[C@@]1(C)C1=C(C3=O)[C@@H]2CCC(=O)[C@@]2(C)C[C@H]1OC(C)=O [wortmannin]
- EGF-induced SGK kinase activity [10]: attenuated
